Assay results published in paper doi:10.1101/2025.11.10.687720, “Magnetosome organelles are organized through interactions between McaA and McaB that alter the dynamics of the bacterial actin-like protein MamK” (bioRxiv, 2025).
No constants are given. Whether binding was seen depends on the method and setting. In cells and extracts the contact can be indirect. A yes stands for co-enrichment or nearness to the bait. Other partners may have been found. Blank lines part the entries; values can stand above or below the binder they belong to.

Experiments:
[1] = biological target: McaB-GFP (Magnetospirillum magneticum AMB-1); experiment: affinity purification with mass spectrometry; GFP-tagged bait expressed in AMB-1, lysate of 20 L of culture on GFP-Trap agarose beads, eluted with 200 mM glycine pH 2.5; GFP alone as control
[2] = biological target: McaA-GFP (Magnetospirillum magneticum AMB-1); experiment: as above

binding [1]: binds | binding [2]: binds
B1: MamA (protein, UniProt Q2W8Q0 1-217)
chain: MSSKPSDILDEVTLYAHYGLSVAKKLGMNMVDAFRAAFSVNDDIRQVYYRDKGISHAKAGRYSQAVMLLEQVYDADAFDVDVALHLGIAYVKTGAVDRGTELLERSLADAPDNVKVATVLGLTYVQVQKYDLAVPLLIKVAEANPINFNVRFRLGVALDNLGRFDEAIDSFKIALGLRPNEGKVHRAIAFSYEQMGRHEEALPHFKKANELDEGASV

binding [1]: binds
B2: MamJ (protein, UniProt Q2W8Q7 1-506)
chain: MANNRRDRDKGDGSQGEGLSAGGGMPSEPEIVSVTVHPTPTLAVSLKPAQQGDIWASLLESSPWSANHGGRIEPVQPSPAPTRPTESPSVGDLVSRWSQPIWRTPSRVEEVETPESNFVIELEASQPITSDITVSVSDLVIEVQPIQTTEAEPEPELPVAEPEPGVVPVDVVAEAEPEPELPVAEPEPGVVPVDVVAEAEPEPELPVAEPEPEVVPVDVVAEAEPEPELPVAEPEPEVVPVDVVAEAEPEPELPVAEPEPEVVPVDVVAEAEPEPELPVAAPEPEVLPVEVVAEAEPEPELPVAAPEPEVLPVEVVAEAEPEPELPVAAPEPEVVPVDVVAEAEPEPELPVAEPELVHEAAVSEPVAESIEDAVAVPAPATNFGLAELMQAAAAMAPVLASPPSVAPAAKPVREPAKKRKAPPVRKKVATVQDVPVEDLLGGIFGIAGSAVRSVLSLGAGVVGGVVKGGRVIGDNVVAGARRLTGSAEGSCGTCSTSQCDTVGKKK

binding [2]: binds
B3: MamK (protein, UniProt Q2W8Q6 1-347)
chain: MSEGEGQAKNRLFLGIDLGTSHTAVMSSRGKKFLLKSVVGYPKDVIGLKLLGRPYVVGDEAFEMRSYLDIRYPLQDGVLSEISDRDIEVARHLLTHVVKSAEPGPNDEICAVIGVPARASAANKALLLKMAQEVVHTALVVSEPFMVGYGLDKLINTIIVDIGAGTTDICALKGTVPGPEDQVTLTKAGNYVDERLQNAILERHPELQMNVNVACAVKEQFSFVGTPTEVASFEFRAAGKPVRADVTEPVKIACEALMPDIIESIETLLRSFQPEYQATVLQNIVFAGGGSRIRGLAAYVKEKLRPFGDANVTCVKDPTFDGCRGALRLAEELPPQYWRQLGDVSGS

binding [1]: binds
B4: Mms6 (protein, UniProt Q2W8R5 1-133)
chain: MGEMEREGAAAKAGAAKTGAAKTGTVAKTGIAAKTGVATAVAAPAAPANVAAAQGAGTKVALGAGKAAAGAKVVGGTIWTGKGLGLGLGLGLGAWGPIILGVVGAGAVYAYMKSRDIESAQSDEEVELRDALA
